Experimental findings from PMC9830515 are described below.

The chains behind the UniProt entries cited, without tags or fusion partners. Residues count along the entry.
UniProt Q15843, residues 1-76: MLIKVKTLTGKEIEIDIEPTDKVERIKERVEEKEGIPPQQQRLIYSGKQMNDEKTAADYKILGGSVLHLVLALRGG

The target of experiment [1] is His-tagged full-length NEDD8 (human) (UniProt Q15843). The experiment is described as follows: co-IP; cells transfected with His-tagged full-length NEDD8 and FLAG-tagged full-length or truncated HER2; anti-His immunoprecipitate, immunoblot for FLAG.
Experiment [2] addresses T1, NEDD8-activating enzyme E1 subunit 1 (NAE1) (human (endogenous in SK-BR3 and BT474)) (UniProt Q13564).
T1 sequence: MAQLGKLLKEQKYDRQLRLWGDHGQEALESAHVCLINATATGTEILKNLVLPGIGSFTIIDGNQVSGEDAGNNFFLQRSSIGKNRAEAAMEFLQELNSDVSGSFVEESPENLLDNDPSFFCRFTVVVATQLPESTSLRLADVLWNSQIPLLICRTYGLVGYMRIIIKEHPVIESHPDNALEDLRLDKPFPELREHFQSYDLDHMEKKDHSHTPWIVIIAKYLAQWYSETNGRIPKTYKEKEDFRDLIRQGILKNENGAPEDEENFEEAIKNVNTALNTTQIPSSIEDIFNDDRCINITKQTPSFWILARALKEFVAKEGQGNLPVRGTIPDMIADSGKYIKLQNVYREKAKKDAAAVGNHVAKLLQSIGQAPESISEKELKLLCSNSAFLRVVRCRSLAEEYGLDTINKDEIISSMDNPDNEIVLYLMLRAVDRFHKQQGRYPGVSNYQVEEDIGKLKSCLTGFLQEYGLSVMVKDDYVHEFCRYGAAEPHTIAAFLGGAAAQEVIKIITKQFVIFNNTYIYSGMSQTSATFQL
The experiment is described as follows: co-IP; endogenous proteins in lysates of SK-BR3 and BT474 cells; magnetic beads with antibody (anti-NEDD8, anti-NAE1 or anti-HER2), protein bound 1-2 h at 4 °C, washed three times with PBST, immunoblot.

These are yes or no findings as the source states them, for the method shown. Binding seen in cells or lysates may run through a third protein. Some entries that bind do so weakly or less than the wild type.

For “FLAG-tagged HER2 domain (988-1255 aa) (from UniProt P04626-1 988-1255) (domain or fragment)”, in experiment [1], the binding result was “binds”.

In the case of “FLAG-tagged HER2 protein domain (720-987 aa) (from UniProt P04626-1 720-987) (domain or fragment)”, the binding result in experiment [1] is recorded as “binds”.

Take “HER2 (human epidermal growth factor receptor 2) (from UniProt P04626 23-1255)”: the binding entry in experiment [2] is reported as “binds”.
